Data taken from ChEMBL document CHEMBL3988442, “University of Dundee, Small-Polar-MMV Screening Library” (2021).

Sequences of proteins named here, by UniProt entry; tags and fusion partners are left off.
UniProt E9BF75, entry or part of it: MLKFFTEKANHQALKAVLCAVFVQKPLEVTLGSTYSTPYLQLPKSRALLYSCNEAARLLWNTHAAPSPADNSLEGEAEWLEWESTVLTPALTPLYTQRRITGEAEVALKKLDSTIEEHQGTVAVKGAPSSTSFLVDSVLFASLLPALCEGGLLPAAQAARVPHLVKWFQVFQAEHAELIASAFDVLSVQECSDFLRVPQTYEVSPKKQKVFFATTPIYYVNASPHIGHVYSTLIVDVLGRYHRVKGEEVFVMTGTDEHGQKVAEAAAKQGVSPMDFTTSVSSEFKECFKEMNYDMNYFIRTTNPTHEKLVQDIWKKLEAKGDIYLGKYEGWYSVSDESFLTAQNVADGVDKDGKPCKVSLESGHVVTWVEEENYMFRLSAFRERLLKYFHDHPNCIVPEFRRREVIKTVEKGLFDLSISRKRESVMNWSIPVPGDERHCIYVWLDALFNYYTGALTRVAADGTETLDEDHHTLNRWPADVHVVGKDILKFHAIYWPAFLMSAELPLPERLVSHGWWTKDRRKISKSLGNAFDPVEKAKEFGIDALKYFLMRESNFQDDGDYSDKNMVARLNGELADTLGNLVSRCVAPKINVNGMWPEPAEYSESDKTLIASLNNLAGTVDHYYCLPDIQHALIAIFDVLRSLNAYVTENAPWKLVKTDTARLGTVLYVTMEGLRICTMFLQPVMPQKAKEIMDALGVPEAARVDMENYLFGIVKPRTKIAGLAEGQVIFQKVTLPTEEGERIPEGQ

Mtb heat-shock: 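Assay on Mycobacterium tuberculosis, filed only as a heat shock assay from Cornell; the read-out is not stated. The concentration is filed as 10 mM, unlikely as a test dose, so the dose is not known. Higher reads as stronger inhibition (inferred: compounds with an IC50 in retests scored well above the rest). Size under these conditions: about 69,000 compounds, about 930 of them at 50% or above in at least one test.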
LdMetRS: 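Methionyl-tRNA synthetase (putative), Leishmania donovani (UniProt E9BF75). Primary screen of methionyl-tRNA synthetase; the read-out is not stated. The test concentration is not given. Values are per cent inhibition. Size under these conditions: about 68,000 compounds, about 24 of them at 50% or above in at least one test.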
Mtb growth Cornell: 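Whole-cell assay for inhibitors of Mycobacterium tuberculosis growth, labelled Cornell in the record; the read-out is not stated. The concentration is filed as 10 mM, unlikely as a test dose, so the dose is not known. The record gives no direction; compounds strong in two other growth screens of this library score well above the rest, so higher reads as stronger inhibition. About 53,000 compounds were tested under these conditions; 1.7% (about 900) showed 50% or more at least once.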

Results are percentages, as filed.
How 0% and 100% were set is not recorded. Most values in the screen are low, and negative values occur.
This is an unselected part of the compounds tested.
A dash means the value is not listed here; it may have been measured.

compound | Mtb heat-shock | LdMetRS | Mtb growth Cornell
O=C(c1ccc(S(=O)(=O)NCc2ccon2)cc1)N1CCNCC1 | 13% | 21.14% | 11.47%
Cc1cc(C[C@@H]2COC[C@@H]2NC(=O)CN2CCOC2=O)on1 | 12.43% | 6.933% | -
CCS(=O)(=O)N1CCC2(CC1)CC1(CCN(CCOC)CC1)C(=O)N2C | - | 8.377% | -
Nc1nc2c(s1)C(c1c(F)cccc1Cl)CC(=O)N2 (stereo not given) | -10.2% | 3.399% | 103.5%
Cn1ccnc1CN1CCN(CC(O)c2ccco2)CC1 (stereo not given) | 0.527% | 11.81% | -
COCc1ncn2c1CN(C(=O)c1cnc3ccccc3c1)CC2 | -32.87% | 12.18% | -
Cc1cc(C(=O)N2CCCC2)ccc1NCC(=O)N1CCCCC1C (stereo not given) | -9.195% | 3.409% | -
COc1ccc(C(CC(=O)O)NC(=O)c2cc(C)on2)cc1 (stereo not given) | -13.79% | 13.04% | -
CCC(C)(C)NC(=O)Cn1nnc(CN(C)C(=O)c2ccccc2)n1 | -6.051% | 9.851% | -22.37%
O=C(C[C@H]1[C@H]2CN(Cc3ccsc3)C[C@@H]12)N1CCCC1 | - | 13.33% | -
O=C(NCc1cnc2n1CCN(c1ncc(F)cn1)CC2)C1CCC1 | 2.29% | 15.24% | 5.695%
[H][C@@]12CCN(C(=O)c3ccccn3)C[C@]1([H])OCCN(c1ccsc1)C2=O | -4.623% | - | -64.39%
Cl.c1cncc(CNc2cncc(C3CCCN3)n2)c1 (stereo not given) | -18.35% | - | 18.37%
CN(CCc1cn[nH]c1)Cc1nc(Cc2cccc(C(F)(F)F)c2)no1 | -14.53% | 7.843% | 5.54%
CC(NC(=O)NCCCn1cncn1)c1ccc2c(c1)CC(=O)N2 (stereo not given) | 5.692% | 17.46% | -
Cc1ncc(C(=O)N2CCCCC2c2nc3cc(F)ccc3[nH]2)c(O)n1 (stereo not given) | -3.011% | 13.88% | -3.276%
Cc1cc(C(=O)N2CCC3(CC2)COCCN(c2cccnc2)C3)[nH]n1 | - | 16.67% | -
Cc1noc(CNc2cccc(C(=O)N3CCCC(O)C3)c2)n1 (stereo not given) | 5.433% | -2.957% | -18.68%
CC(NC(=O)N(C)CCOc1ccccc1F)c1nncn1C (stereo not given) | -22.99% | 25.14% | -46.44%
CNC(=O)CN1CCCC12CCN(Cc1c[nH]cn1)CC2.O=C(O)C(F)(F)F.O=C(O)C(F)(F)F | -25.9% | - | 6.005%
CC(=O)N[C@@H]1CN(Cc2nc3ccccc3[nH]2)C[C@H]1c1ccc(C)o1 | -10.22% | 13.36% | -12.33%
Cc1cc(C)n(CC2CN(c3ccc(C#N)cn3)CCO2)n1 (stereo not given) | -15.77% | 17.6% | 3.076%
O=C1C[C@H]2[C@H](CCN2Cc2ccccn2)N1CC1CC1 | - | 10.44% | -
O=C(Cn1cc(I)cn1)Nc1cccnc1 | 5.782% | 11.97% | -2.523%
NC(=O)c1ccc(CNC(=O)NCc2cc[nH]n2)cc1 | -17.45% | 14.29% | 18.7%
CCC(=O)N1CCC2(CC1)CC(NC(=O)N(C)C)c1cc(C)ccc12 (stereo not given) | -17.66% | 10.14% | 34.22%
CCC(=O)N1CCN(C)C(=O)C(Cc2ccccc2-c2cccs2)C1 (stereo not given) | 9.61% | 19.62% | 20.69%
COc1ccc(C(C)NC(=O)C2CCN(S(C)(=O)=O)CC2)cc1C (stereo not given) | 9.311% | 6.267% | 16.67%
CS(=O)(=O)NCCn1ccc(-c2cccs2)n1 | 0.1994% | 8.075% | 2.755%
NC(=O)c1cnc2n1CCN(C(=O)c1ccc(-c3cc[nH]n3)cc1)C2 | 8.039% | 15.26% | 10.24%
NC(=O)NC1(C(=O)N2CCc3c(Cl)cccc3C2)CCCCC1 | -134.3% | 17.82% | -
[H][C@@]12CCCO[C@]1([H])[C@H](NS(C)(=O)=O)CN(Cc1ccccc1)C2 | -6.738% | - | 4.615%
CCc1nccn1-c1cncc(C2CCN(C(=O)COC)CC2)n1 | -20.24% | 19.35% | -26.9%
CN(C)C(=O)Cn1c2c(ccc1=O)CC(NCc1cccnc1)CC2 (stereo not given) | -2.178% | 14.13% | 28.92%
FC1(F)CCNCC12CCN(c1ccccn1)C2 (stereo not given) | -14.14% | 1.742% | -22.97%
CCc1ccc2c(C3CN(C(C)=O)C3)ncn2c1 | -5.457% | 12.04% | 27.54%
COc1ccc(CNC(=O)CCCc2nnc3ccc(OC)nn23)cc1 | 11.29% | 12.66% | 31%
Cn1cnc2c1C(COCC1CCOCC1)CN(C(=O)C1CC=CC1)C2.O=C(O)C(F)(F)F (stereo not given) | -10.17% | - | 21.77%
CCOCC1CN(C(=O)Cc2ccccn2)Cc2cnn(C)c21 (stereo not given) | - | 3.014% | -
Cc1ccc2nc(C3CCN(CC4CC4)CC3)nn2c1.O=C(O)C(F)(F)F | -35.41% | - | -32.41%
OC[C@H]1CN(Cc2c(Cl)cncc2Cl)C[C@H]1CN1CCCCCC1 | -12.7% | 5.155% | -20.6%
CC(NC(=O)Cn1ccc2sccc2c1=O)c1ccccc1 (stereo not given) | 10.27% | 8.527% | -5.049%
CSc1nc2cc(C)n(CC(N)=O)c2c(=O)n1CC(C)C | 11.83% | 14.91% | 2.018%
COCC(=O)NCc1nn(CCN2CCCC2)c(=O)c2ccccc12 | -7.005% | 7.859% | -35.8%
Cn1ccnc1C(NCc1csc(Br)c1)c1ccccc1 (stereo not given) | 103.5% | 15.56% | 22.13%
COc1cc(N2CCCC(c3nccn3Cc3cccnc3)C2)ncn1 (stereo not given) | -5.471% | 12.63% | 23.87%

The last 3 entries again:

compound,Mtb heat-shock,LdMetRS,Mtb growth Cornell
COCC(=O)NCc1nn(CCN2CCCC2)c(=O)c2ccccc12,-7.005%,7.859%,-35.8%
Cn1ccnc1C(NCc1csc(Br)c1)c1ccccc1 (stereo not given),103.5%,15.56%,22.13%
COc1cc(N2CCCC(c3nccn3Cc3cccnc3)C2)ncn1 (stereo not given),-5.471%,12.63%,23.87%